This is an account of results in article PMC8442857 (Science Advances, 2021).

In the assay the target is ACC1 (acetyl-coenzyme A carboxylase 1) (Homo sapiens, UniProt Q13085). Kind of assay: biochemical.

Consider `Clc1ccc(CSC(Cn2ccnc2)c2ccc(Cl)cc2Cl)cc1` (stereo not shown) [SN, sulconazole], for which the 50% inhibitory concentration (IC50) is around 20 µM.
